PubChem BioAssay AID504744 | Drosophila RNAi Screening Center | 2011
The deposit covers about 23,000 reagents; this is a random part of those that have a named target and a result. Of all reagents, 98 (0.43%) were called active. 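Only hit calls are given; the phospho-dAkt signals, z-scores and hit direction were not deposited.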 Names joined by + are all predicted targets of the reagent.

- Assay: 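Identify dsRNAs that increase or decrease phospho-dAkt after insulin treatment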 (primary screen)
- Cells: Drosophila Kc167 cells
- Reagents: long dsRNA against Drosophila genes, 250 ng dsRNA per well of a 384-well plate
- Duration: 3 days of knock-down, then overnight serum-free starvation before stimulation
- Conditions: bovine insulin at 387 nM for 10 minutes after 12 h without serum
- Measured: 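Per-well phospho-dAkt level from an in-cell fluorescent antibody stain, divided by a DNA-dye signal; log2 residuals turned into z-scores that take cell number into account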
- Call rule: 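Hit in the insulin screen when the two-replicate mean z-score is more extreme than plus or minus 2.5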

target | amplicon | Call
pyx (GeneID 38037) | DRSC08510 | inactive
pyx (GeneID 38037) | DRSC08511 | inactive
CG6836 (GeneID 40070) | DRSC10722 | inactive
RPA1 (GeneID 40972) | DRSC16830 | inactive
trus (GeneID 41540) | DRSC15772 | inactive
FucTA (GeneID 39653) | DRSC10733 | inactive
l(2)k09913 (GeneID 37661) | DRSC04699 | inactive
Ssl (GeneID 37909) | DRSC04657 | inactive
atl (GeneID 42934) | DRSC16089 | inactive
Dys + snoRNA:Me18S-A1374 | DRSC16232 | inactive
CG31729 (GeneID 34736) | DRSC02524 | inactive
CG31729 (GeneID 34736) | DRSC02946 | inactive
CG7974 (GeneID 38207) | DRSC08607 | inactive
Prp8 (GeneID 36304) | DRSC07293 | inactive
CG6700 (GeneID 34496) | DRSC02980 | inactive
CG7582 (GeneID 43492) | DRSC16261 | inactive
Hsp23 (GeneID 39077) | DRSC11188 | inactive
mRpL39 (GeneID 39627) | DRSC10255 | inactive
dob (GeneID 32436) | DRSC19948 | inactive
mRpL19 (GeneID 41028) | DRSC16367 | inactive
mRpL19 (GeneID 41028) | DRSC21618 | inactive
Akap200 (GeneID 34170) | DRSC01864 | inactive
CG6454 (GeneID 42904) | DRSC16044 | inactive
SF1 (GeneID 43912) | DRSC16844 | inactive
CG12964 (GeneID 36714) | DRSC06266 | inactive
CG4768 (GeneID 32666) | DRSC19917 | inactive
CG31633 (GeneID 33931) | DRSC02275 | inactive
eIF4E7 (GeneID 31059) | DRSC17782 | inactive
eIF4E7 (GeneID 31059) | DRSC18623 | inactive
Pgm2a (GeneID 35923) | DRSC07068 | inactive
CG34148 + P5CDh2 | DRSC13519 | inactive
jumu (GeneID 41265) | DRSC16651 | inactive
CG34167 (GeneID 5740831) | DRSC01525 | inactive
COX7AL2 (GeneID 5740746) | DRSC00099 | inactive
Zasp67 (GeneID 39148) | DRSC10169 | inactive
betaTub65B (GeneID 117406) | DRSC11393 | inactive

Continued (6 carried over from the part before).
target | amplicon | Call
CG34148 + P5CDh2 | DRSC13519 | inactive
jumu (GeneID 41265) | DRSC16651 | inactive
CG34167 (GeneID 5740831) | DRSC01525 | inactive
COX7AL2 (GeneID 5740746) | DRSC00099 | inactive
Zasp67 (GeneID 39148) | DRSC10169 | inactive
betaTub65B (GeneID 117406) | DRSC11393 | inactive
Erk7 (GeneID 31877) | DRSC18127 | inactive
Erk7 (GeneID 31877) | DRSC18227 | inactive
Erk7 (GeneID 31877) | DRSC21895 | inactive
Obp99c (GeneID 43494) | DRSC16262 | inactive
CkIIbeta2 (GeneID 37300) | DRSC07361 | inactive
CG5273 (GeneID 31021) | DRSC18612 | inactive
CG14960 (GeneID 38403) | DRSC08419 | inactive
C901 (GeneID 32032) | DRSC19351 | inactive
CG6729 (GeneID 34484) | DRSC02984 | inactive
CG6729 (GeneID 34484) | DRSC22793 | inactive
CG7328 (GeneID 40204) | DRSC10812 | inactive
CkIIalpha (GeneID 48448) | DRSC11946 | inactive
Ubi-p63E (GeneID 38456) | DRSC22016 | inactive
PGRP-SC2 (GeneID 35862) | DRSC06481 | inactive
CG12865 (retired record) (GeneID 36633) | DRSC06205 | inactive
CG9706 (GeneID 39876) | DRSC11095 | inactive
mRpS2 (GeneID 33688) | DRSC00550 | inactive
CG5390 (GeneID 34383) | DRSC02855 | inactive
chm (GeneID 43928) | DRSC03341 | inactive
PGRP-LB (GeneID 41379) | DRSC14926 | inactive
GstE3 (GeneID 37108) | DRSC06673 | inactive
mbf1 (GeneID 39842) | DRSC11365 | inactive
CG7841 (GeneID 39672) | DRSC10922 | inactive
CG15452 (GeneID 33061) | DRSC20523 | inactive
CG16998 (GeneID 38847) | DRSC10235 | inactive
CG8312 (GeneID 41163) | DRSC16406 | inactive
CG10600 (GeneID 35142) | DRSC02074 | inactive
CG13609 (GeneID 42883) | DRSC14612 | inactive
CG13609 (GeneID 42883) | DRSC22843 | inactive
Actn3 (GeneID 44964) | DRSC14106 | inactive
Den1 (GeneID 36339) | DRSC07195 | inactive
CG16865 (GeneID 34788) | DRSC01904 | inactive
wg (GeneID 34009) | DRSC03636 | inactive
Prx3 (GeneID 42109) | DRSC15883 | inactive
amon (GeneID 43215) | DRSC13784 | inactive
amon (GeneID 43215) | DRSC16900 | inactive
CG33458 (GeneID 2768846) | DRSC22891 | inactive
CG34273 (GeneID 5740836) | DRSC13041 | inactive
PIG-L (GeneID 42388) | DRSC15577 | inactive
CG15029 (retired record) (GeneID 32449) | DRSC19610 | inactive
wntD (GeneID 41633) | DRSC16423 | inactive
boly (GeneID 35809) | DRSC21629 | inactive
CG11248 (GeneID 40411) | DRSC11644 | inactive
Wdfy2 (GeneID 34425) | DRSC02822 | inactive
GlnRS (GeneID 45786) | DRSC14140 | inactive
CG11044 (GeneID 37281) | DRSC06026 | inactive
per (GeneID 31251) | DRSC18818 | inactive
CG14431 (GeneID 31639) | DRSC17925 | inactive
gdrd (GeneID 39599) | DRSC10020 | inactive
CG17359 (GeneID 39549) | DRSC10265 | inactive
CG12420 (GeneID 41249) | DRSC14514 | inactive
CG7379 (GeneID 42140) | DRSC16237 | inactive
CG12112 (GeneID 31794) | DRSC17809 | inactive
CG7829 (GeneID 43522) | DRSC16322 | inactive
Ugt35E2 (GeneID 53506) | DRSC16083 | inactive
CG31259 (GeneID 41010) | DRSC14366 | inactive
CG12071 (GeneID 43660) | DRSC14471 | inactive
CG32023 (GeneID 317827) | DRSC08946 | inactive
S6KL (GeneID 45970) | DRSC19349 | inactive
S6KL (GeneID 45970) | DRSC21578 | inactive
Eig71Eb (GeneID 39701) | DRSC11149 | inactive
Pcl (GeneID 37069) | DRSC07503 | inactive
heix (GeneID 34961) | DRSC03542 | inactive
Gr36c (GeneID 117486) | DRSC02437 | inactive
H15 (GeneID 33769) | DRSC03339 | inactive
H15 (GeneID 33769) | DRSC22199 | inactive
CG10799 (GeneID 36472) | DRSC06002 | inactive
CG3246 (GeneID 33564) | DRSC00584 | inactive
Dpit47 (GeneID 35565) | DRSC04985 | inactive
CG13921 (GeneID 38222) | DRSC08390 | inactive
CNBP (GeneID 37646) | DRSC04116 | inactive
CNBP (GeneID 37646) | DRSC04419 | inactive
CNBP (GeneID 37646) | DRSC21317 | inactive
